Test results reported in publication PMC3694003 (PLoS ONE, 2013).

Assay: general procedure: Boc solid-phase peptide synthesis; HBTU (in situ neutralization)
Details: oxidative folding step; for oxidative folding yield: peak area of correctly folded peptide vs total HPLC peak area

[V10K] kalata B1
oxidative folding yield: 16%

[T20K] kalata B1
final HPLC purity (analytical RP-HPLC): >95%
oxidative folding yield: 40%

[G18K] kalata B1
oxidative folding yield: 22%

[T8K] kalata B1
oxidative folding yield: 15%

[V10A] kalata B1
oxidative folding yield: 21%

[N29K] kalata B1
oxidative folding yield: 29%
